In patent US20210002358A1:
Results are given in words; binding and its absence hold for the method and conditions named. Some results given as binding are weak or reduced against the parent protein; the word gives no strength. For some assays here: Where a sequence is shown, tags or fusion partners need not be part of it.

Amino acid sequences for entries named in this document (tags omitted). A change or cut given only in a name is not applied to a line headed by its entry. Chains listed by the source or under a name are the forms on record and can include a tag or linker.
PHF-tau (paired helical filament-tau) purified from cortex of an Alzheimer patient (P10636, form named): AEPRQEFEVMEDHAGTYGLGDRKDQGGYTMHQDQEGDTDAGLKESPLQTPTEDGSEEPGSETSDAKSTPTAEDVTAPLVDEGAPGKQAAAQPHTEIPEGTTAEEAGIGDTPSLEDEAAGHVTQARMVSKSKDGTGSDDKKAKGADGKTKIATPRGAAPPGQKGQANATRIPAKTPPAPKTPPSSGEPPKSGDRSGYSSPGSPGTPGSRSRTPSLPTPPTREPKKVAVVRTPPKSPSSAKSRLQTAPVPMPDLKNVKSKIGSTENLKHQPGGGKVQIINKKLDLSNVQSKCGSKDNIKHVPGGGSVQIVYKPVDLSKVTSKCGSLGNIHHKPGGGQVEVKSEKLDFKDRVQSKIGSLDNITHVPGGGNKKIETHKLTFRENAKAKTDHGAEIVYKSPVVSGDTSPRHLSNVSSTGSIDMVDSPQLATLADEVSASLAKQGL

Tests used:
[1] = target: PHF-tau (paired helical filament-tau) purified from cortex of an Alzheimer patient (human) (UniProt P10636); test: SPR, antibody injected at 75, 15, 3 and 0.6 nM over PHF-tau
[2] = target: PHF-tau (paired helical filament-tau) purified from cortex of an Alzheimer patient (human) (UniProt P10636); test: SPR sensorgrams, 75, 15, 3 and 0.6 nM
[3] = target: PHF-tau (paired helical filament-tau) purified from cortex of an Alzheimer patient (human) (UniProt P10636); test: SPR
[4] = target: PHF-tau (paired helical filament-tau) purified from cortex of an Alzheimer patient (human) (UniProt P10636); test: SPR, Fab injected at 75, 15, 3 and 0.6 nM over PHF-tau
[5] = target: PHF-tau (paired helical filament-tau) purified from cortex of an Alzheimer patient (human) (UniProt P10636); test: direct ELISA, hybridoma supernatant on 25 ng/well coated PHF-tau
[6] = target: soluble tau (control tau, recombinant 2N4R tau, SEQ ID NO: 31) (human) (UniProt P10636); test: direct ELISA on coated 2N4R Tau (10 ng/mL and 1 ng/mL), anti-mouse HRPO detection
[7] = target: soluble tau (control tau, recombinant 2N4R tau, SEQ ID NO: 31) (human) (UniProt P10636); test: ELISA, 2N4R Tau coated at 10 ng/mL or 1 ng/mL
[8] = target: soluble tau (control tau, recombinant 2N4R tau, SEQ ID NO: 31) (human) (UniProt P10636); test: ELISA, full-length Tau coated at 1 ng/mL or 10 ng/mL
[9] = target: soluble tau (control tau, recombinant 2N4R tau, SEQ ID NO: 31) (human) (UniProt P10636); test: direct ELISA, hybridoma supernatant on 10 ng/well coated control tau

Measured: binding

B1: PT82 mAb (recombinantly expressed, mouse IgG2a/kappa) (antibody, V domains shown)
VH: EVKLEESGGGLVQPGGSMKLSCVASGFTFSNYWMNWIRQSPEKGLEWVAQIRLQSDNYATRYAESVKGRFTISRDESKTSVYLQMNNLRTEDTGIYYCTGGTTYWGQGTLVTVSA
VL: DIVMTQSQKFMSTSVGDRVSITCKASQNVGTAVAWYQQKPGQSPKLLIYSASIRYTGVPDRFTGSGSGTDFTLTINYMQSEDLADYFCQQFSSYPYTFGGGTKLEIK
binds: [1] | [2] | [3]

B2: PT82 Fab (chimeric, mouse variable domains on human IgG1/kappa constant domains, His tag) (Fab, V domains shown)
VH: B1 VH
VL: B1 VL
binds: [2] | [3] | [4]

B3: PT82 produced by hybridoma (hybridoma supernatant) (antibody, V domains shown)
VH: B1 VH
VL: B1 VL
binds: [5] | [6] | [7] | [8] | [9]
